Values joined by “and” are separate entries in the source; they are usually repeats but may differ in a detail not shown here. Identical values can stand only once. Some of the results follow. Shown are side measurements of this screen, not its main read-out; they come without a call. The list favours compounds with an active or inconclusive main result. Potencies come from curve fits of mixed quality, noted in brackets.
Assay: qHTS Assay for Lipid Storage Modulators in Drosophila S3 Cells;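 for cell number change: cells counted by Cell Tracker Red CMTPX staining in the red channel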
Conditions: BODIPY lipid droplet fluorescence, 18-24 h; for cell number change: measured here: cell count max response, cells fed with added oleic acid
Summary of the method: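 Laser-scanning cytometry quantifies lipid droplet accumulation (500–530 nm total intensity; droplet/cell object ratio) in oleic acid-fed (400 uM added) Drosophila S3 cells treated with a concentration series. 20 uM Triacsin C defined 100% inhibition.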

[1] = measured here: lipid fluorescence (Fed channel) AC50, cells fed with added oleic acid
[2] = measured here: cell number channel AC50, cells fed with added oleic acid

For `O=C(NNC(=O)c1cc2ccccc2o1)c1ccc(F)cc1`, the cell number change was -5.38% and the AC50 [1] was 6.51 µM [falling, single point].
In the case of `CC1=NN(C(C#N)c2cccc([N+](=O)[O-])c2)C(C)(C)C1` (stereo not drawn), the cell number change is reported as 52.5%, the AC50 [2] is reported as 18.4 µM [rising, single point] and the AC50 [1] is reported as 20.6 µM [rising, single point].
For `CCn1c(CNc2ccc(OC)cc2)nnc1SCC(=O)N1CCCc2ccccc21`, the cell number change was -32.9% and the AC50 [2] was 0.326 µM [falling, full curve].
With `Nc1cc(=O)[nH]c(SCCSc2ccccc2F)n1` the cell number change was -8.97%.
In the case of `O=C(Cn1ncn2c(cc3ccccc32)c1=O)NCCCc1ccccc1`, the cell number change is reported as -5.31%, the AC50 [2] is reported as 4.11 µM [falling, single point] and the AC50 [1] is reported as 20.6 µM [rising, single point].
In the case of `O=C1c2ccccc2C(=O)N1c1ccc(-c2nc3ccccc3o2)cc1`, the cell number change is reported as 17.7% and the AC50 [1] is reported as 8.2 µM [rising, partial curve, poor fit].
In the case of `COc1ccc(N2CC(C(=O)N3CCN(c4ccccc4F)CC3)CC2=O)cc1` (stereo not drawn), the cell number change is reported as 11.4%.
For `CC[C@H](C)C(=O)N[C@H]1CCCN1C(=O)/C=C/c1ccccc1`, the cell number change was -38.8%, the AC50 [2] was 0.517 µM [falling, partial curve, poor fit] and the AC50 [1] was 0.184 µM [rising, full curve].
In the case of `CCC(c1nnc(SCCNCCO)n1CCN1CCOCC1)N(C)C` (stereo not drawn), the cell number change is reported as 9.3%.
With `Nc1nnnn1/N=C/c1ccccn1` the cell number change was 35% and the AC50 [2] was 1.03 µM [rising, full curve, poor fit].
In the case of `CC(C)OC(=O)CSc1nnc(-c2ccco2)n1N`, the cell number change is reported as 18.4% and the AC50 [1] is reported as 32.6 µM [falling, single point].
With `CC(C)(C)c1ccc(/C=N/OCC(=O)NCc2ccccc2)cc1` the cell number change was 23.4% and the AC50 [1] was 0.0326 µM [falling, full curve, poor fit].
For `CC(=O)c1ccc(OCCCC(=O)NNC(=O)c2ccccn2)cc1`, the cell number change was 5.76% and the AC50 [1] was 29.1 µM [rising, single point].
In the case of `O=C(Nc1cccc(-c2cn3c(n2)SCC3)c1)c1ccc2c(c1)OCO2`, the cell number change is reported as -12% and the AC50 [1] is reported as 0.58 µM [falling, single point].
With `CCS(=O)(=O)Nc1ccc(-c2cc(-c3ccccc3)c3cc(C)ccc3n2)cc1` the cell number change was -37.6% and the AC50 [2] was 29.1 µM [falling, single point].
For `Cc1ccc(NC(=O)c2cccnc2C(=O)Nc2ccc(C)cc2)cc1`, the AC50 [1] was 29.1 µM [rising, single point].
In the case of `CN(Cc1ccccc1)C(=O)CCc1ccccc1`, the cell number change is reported as -38.5% and the AC50 [2] is reported as 0.206 µM [falling, full curve, poor fit].
With `COCCCNC(=S)N1CCN(c2nc(-c3ccc(F)cc3)cs2)CC1` the cell number change was -38% and the AC50 [2] was 0.259 µM [falling, full curve, poor fit].
For `COc1cc2cc(CN(CCO)C(=O)c3cccs3)c(=O)[nH]c2cc1OC`, the cell number change was -7.61% and the AC50 [1] was 3.26 µM [rising, full curve, poor fit].
In the case of `O=C(Nc1ccc(Cl)c(S(=O)(=O)N2CCOCC2)c1)c1ccccn1`, the AC50 [1] is reported as 29.1 µM [rising, partial curve, poor fit].
In the case of `COc1ccc(-c2cc(-c3ccc(O)cc3)nc(N)c2C#N)cc1`, the cell number change is reported as 4.01% and the AC50 [1] is reported as 6.51 µM [falling, single point].
With `N#Cc1nnn(-c2ccc(Cl)cc2)c1N` the cell number change was 6.35% and -25.2% and the AC50 [1] was 6.51 µM [falling, single point] and 32.6 µM [falling, single point].
`C=C(C)C(=O)O[C@H]1C/C(C)=C\C(=O)/C=C(\C)[C@H](O)[C@@H]2OC(=O)C(=C)[C@@H]21` gave a cell number change of -17.4%.
In the case of `O=C(Cn1nnc(-c2ccccc2)n1)Nc1cccc(S(=O)(=O)N2CCOCC2)c1`, the cell number change is reported as -25%, the AC50 [2] is reported as 3.66 µM [falling, full curve, poor fit] and the AC50 [1] is reported as 29.1 µM [falling, single point].
`O=C(Nc1ccc(Br)cc1)c1cc(-c2cccs2)on1` showed a cell number change of -6.25%.
With `CCOC(=O)CN1C(=O)C(O)(CC(=O)c2cccc(OC)c2)c2ccccc21` (stereo not drawn) the cell number change was 44.1% and the AC50 [1] was 23.1 µM [rising, partial curve].
With `COCCn1cnnc1SCC(=O)Nc1ccc(N2CCCCC2)cc1` the cell number change was -16.9% and the AC50 [1] was 0.103 µM [falling, full curve].
With `COCCNC(=S)N/N=C/c1c2ccccc2cc2ccccc12` the cell number change was -12.4% and the AC50 [1] was 6.51 µM [falling, partial curve].
With `Cn1c(CSCc2ccc(Cl)cc2)nnc1SCC(=O)Nc1nc2ccccc2s1` the cell number change was 19.5%, the AC50 [2] was 6.51 µM [rising, single point] and the AC50 [1] was 32.6 µM [falling, single point].
With `CC(NC(=O)C1CC1)C(c1cccs1)N1CCOCC1` (stereo not drawn) the cell number change was -25.5% and the AC50 [1] was 20.6 µM [falling, single point].
In the case of `O=C(NCc1n[nH]c(=O)c2ccccc12)C1CC(=O)N(c2ccccc2)C1` (stereo not drawn), the cell number change is reported as 22.2%.
In the case of `O=C(CN(C(=O)c1nsc(Cl)c1Cl)c1cccc(F)c1)NC1CCCC1`, the cell number change is reported as 0.901% and the AC50 [1] is reported as 6.51 µM [falling, partial curve].
With `O=C(O)c1cc(-c2ccc(N3CCOCC3)cc2)nn1-c1ccccc1Cl` the cell number change was 10.3%, the AC50 [2] was 0.184 µM [falling, full curve] and the AC50 [1] was 0.116 µM [falling, full curve].
In the case of `O=S(=O)(c1ccccc1)N(CC1CO1)c1cc(Cl)ccc1Cl` (stereo not drawn), the cell number change is reported as -31% and the AC50 [2] is reported as 11.6 µM [falling, single point].
With `CC1(C)CC(=O)C(C=NCC2CCN(C(=S)Nc3cccc(Cl)c3)CC2)=C(O)C1` the cell number change was -5.22%.
In the case of `Cc1ccc(S(=O)(=O)NCCOCCNS(=O)(=O)c2ccc(C)cc2)cc1`, the cell number change is reported as 3.74% and the AC50 [2] is reported as 0.0461 µM [rising, partial curve].
In the case of `CCOc1cccc(-c2c(C(=O)N/N=C(\C)c3ccccn3)nnn2-c2nonc2N)c1`, the AC50 [2] is reported as 0.0058 µM [falling, full curve, poor fit].
In the case of `CC1=C(C(=O)OCc2ccccc2)C(c2ccc(C)o2)C2=C(CCCC2=O)N1` (stereo not drawn), the cell number change is reported as 231% and the AC50 [1] is reported as 0.58 µM [rising, single point].
In the case of `O=C(Nc1nnc(-c2ccc(F)cc2)s1)c1c(F)cccc1Cl`, the cell number change is reported as -2.31%.
For `CC(C)c1ccc(NC(=O)COc2ccccn2)cc1`, the cell number change was -61.7% and the AC50 [2] was 41.1 µM [falling, partial curve, poor fit].
In the case of `Cc1ccc(OCCCCc2c(C)n[nH]c2C)cc1`, the cell number change is reported as -30.5%, the AC50 [2] is reported as 14.6 µM [falling, partial curve] and the AC50 [1] is reported as 29.1 µM [falling, single point].
In the case of `Cc1cccc(NC2=C(Cl)C(=O)OC2NC(=O)c2ccccc2)c1` (stereo not drawn), the cell number change is reported as 15.4%.
With `CCCN1CCN(C(=S)Nc2ccc(SC(F)F)cc2)CC1` the cell number change was 6.72%.
In the case of `O=S(=O)(NCc1ccc2c(c1)OCO2)c1ccc(F)c(F)c1`, the cell number change is reported as -3.59% and the AC50 [1] is reported as 29.1 µM [falling, single point].
For `Cc1ccc(-c2nnn(CC(=O)N(c3ccccc3)C(C(=O)NCC3CCCO3)c3ccc(Cl)cc3)n2)cc1` (stereo not drawn), the cell number change was 10.1%.
In the case of `O=C(c1ccc([N+](=O)[O-])s1)N1CCN(c2ccccn2)CC1`, the cell number change is reported as -19%.
In the case of `Cc1ccc(NC(=O)CCNC(=O)c2ccccc2)cc1F`, the cell number change is reported as -1.32%.
In the case of `c1ccc(-c2nc(CSc3n[nH]c(-c4cccs4)n3)cs2)cc1`, the cell number change is reported as 37.7% and the AC50 [2] is reported as 29.1 µM [rising, single point].
With `CC(CN(C)Cc1ccccc1)OC(=O)c1cccc(F)c1` (stereo not drawn) the cell number change was -4.35%.
In the case of `CCOC(=O)C1=C(CN2CCN(C(=O)c3ccco3)CC2)NC(=O)NC1c1ccc(OC)cc1` (stereo not drawn), the AC50 [1] is reported as 0.58 µM [falling, single point].
In the case of `Cc1nn(-c2ccccc2)c2sc(C(=O)OCC(=O)N3CCCCC3)cc12`, the cell number change is reported as 2% and the AC50 [1] is reported as 29.1 µM [rising, single point].
For `Cc1noc(C)c1COc1ccc(C(=O)N2CCN(c3ccccc3F)CC2)cc1`, the cell number change was 71.7% and the AC50 [2] was 18.4 µM [rising, single point].
Work on `CN(C)C(CNc1ncnc2ccccc12)c1c(F)cccc1Cl` (stereo not drawn) yielded a cell number change of 10.9%.
In the case of `Cc1ccc(CNC(=O)Cn2c([N+](=O)[O-])cnc2C)cc1`, the AC50 [2] is reported as 0.82 µM [falling, single point].
In the case of `Cc1ccc(/C=[N+](/[O-])C2SC(=S)N(C)C2(C)C)cc1` (stereo not drawn), the cell number change is reported as -59.9%, the AC50 [2] is reported as 4.61 µM [falling, full curve, poor fit] and the AC50 [1] is reported as 8.2 µM [falling, partial curve].
With `CCCCc1nnc(NC(=O)c2ccc(-n3cncn3)c([N+](=O)[O-])c2)s1` the cell number change was 58%.
With `CCCOc1ccc2c3c(c(=O)oc2c1)CCCC3` the cell number change was -8.2% and the AC50 [1] was 32.6 µM [rising, single point].
In the case of `Cc1sc2ncnc(NCC(O)c3ccccc3)c2c1C` (stereo not drawn), the cell number change is reported as 15.4%.
With `CSc1ncccc1C(=O)Nc1ccc(S(=O)(=O)N2CCCC2)cc1` the cell number change was -7.65% and the AC50 [1] was 0.0517 µM [rising, full curve, poor fit].
Work on `Cc1ccc(OCC(=O)NCCCNC(=O)c2ccc(C)nc2)cc1` yielded a cell number change of 0.87%.
In the case of `CC(C)COc1ccc2[nH]c3c(c2c1)CCCC3=O`, the cell number change is reported as 36.3%, the AC50 [2] is reported as 11.6 µM [rising, partial curve] and the AC50 [1] is reported as 6.51 µM [rising, single point].
With `CC(=O)NCN1CCN(CNC(C)=O)CC1` the cell number change was 19.5% and the AC50 [1] was 0.00461 µM [falling, full curve, poor fit].
Work on `O=C(c1ccc2c(=O)n(-c3ccccc3)c(=O)[nH]c2c1)N1CCN(c2ccc(F)cc2)CC1` yielded a cell number change of -5.07%.
Molecule `CCc1ccccc1NC(=O)C1=CN2CCS(=O)(=O)N=C2C=C1` has a cell number change of -8%.
With `COc1cc2cc(CCOC(=O)c3ccc(C#N)cc3)oc(=O)c2cc1OC` the cell number change was 1.1%, the AC50 [2] was 1.16 µM [falling, single point] and the AC50 [1] was 1.16 µM [falling, single point].
For `O=C(N/N=C/c1c(O)ccc2ccccc12)c1cccc(C(F)(F)F)c1`, the cell number change was 55.8%, the AC50 [2] was 9.2 µM [rising, single point] and the AC50 [1] was 29.1 µM [falling, single point].
